These are yes or no findings as the source states them, for the method shown. Some entries that bind do so weakly or less than the wild type.

Sequences of proteins named here, by UniProt entry; tags and fusion partners are left off. Residues count along the entry.
UniProt Q14160, residues 728-815: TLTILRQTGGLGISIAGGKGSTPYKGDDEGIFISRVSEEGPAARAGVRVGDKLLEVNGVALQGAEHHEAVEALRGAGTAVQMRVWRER

The assay addresses human Scribble PDZ1 domain (728-815) (human, UniProt Q14160 728-815). Kind of assay: crystal structure.

For PHTNETSL (phosphorylated Ser residue at position -1 (pS828): PHTNET(phoS)L) [phosphorylated MCC 8-mer peptide (phospho-Ser at position -1)], the binding entry was “binds”.
